Reference: publication PMC11349236
Results are given in words; binding and its absence hold for the method and conditions named. In cells and extracts the contact can be indirect. Here binding means that the protein was enriched with, or labelled near, the bait; the list need not be complete.

The chains behind the UniProt entries cited, without tags or fusion partners. Where a name states a change or a piece, a line headed by the entry shows the natural chain unless it says otherwise.
UniProt Q38D74: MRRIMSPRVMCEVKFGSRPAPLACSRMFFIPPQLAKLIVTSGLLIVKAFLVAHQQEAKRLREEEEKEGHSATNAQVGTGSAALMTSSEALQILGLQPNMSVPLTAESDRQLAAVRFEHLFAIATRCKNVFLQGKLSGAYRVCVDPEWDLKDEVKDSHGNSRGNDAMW
UniProt Q57W16: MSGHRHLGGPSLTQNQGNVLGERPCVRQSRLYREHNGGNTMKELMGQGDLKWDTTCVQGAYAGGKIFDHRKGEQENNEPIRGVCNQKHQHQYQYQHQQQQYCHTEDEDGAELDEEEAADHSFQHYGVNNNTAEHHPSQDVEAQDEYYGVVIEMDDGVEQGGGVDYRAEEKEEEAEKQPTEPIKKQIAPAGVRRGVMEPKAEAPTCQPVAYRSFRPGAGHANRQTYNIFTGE
UniProt Q57UL9: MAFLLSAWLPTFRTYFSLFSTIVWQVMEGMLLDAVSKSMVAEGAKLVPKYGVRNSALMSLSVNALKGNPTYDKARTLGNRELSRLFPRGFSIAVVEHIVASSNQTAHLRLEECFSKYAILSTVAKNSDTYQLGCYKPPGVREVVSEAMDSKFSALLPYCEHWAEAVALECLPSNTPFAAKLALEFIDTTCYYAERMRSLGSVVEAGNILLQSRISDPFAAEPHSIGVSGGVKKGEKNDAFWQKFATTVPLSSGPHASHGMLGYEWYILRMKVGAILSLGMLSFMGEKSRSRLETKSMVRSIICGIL
UniProt Q57YN2: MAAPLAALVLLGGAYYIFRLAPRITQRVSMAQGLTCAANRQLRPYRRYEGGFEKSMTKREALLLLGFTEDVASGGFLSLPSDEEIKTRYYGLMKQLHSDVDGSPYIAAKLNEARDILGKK

Assays:
[1] = molecular target: TbPam16-HA (RNAi-resistant, full-length TbPam16 with C-terminal triple HA tag) (T. brucei) (UniProt Q38D74); experiment: affinity purification with mass spectrometry; postmix SILAC CoIP: CoIPs of uninduced and 2 days induced TbPam16-HA exclusive expressor cells done separately and eluates mixed afterwards; 1% digitonin, 20 mM Tris-HCl pH 7.4, 100 mM NaCl; anti-HA affinity matrix, 2 h, 4°C; LC-MS; detects stable and more transient interaction partners
[2] = molecular target: TbPam16-HA (RNAi-resistant, full-length TbPam16 with C-terminal triple HA tag) (T. brucei) (UniProt Q38D74); experiment: affinity purification with mass spectrometry; premix SILAC CoIP: differentially labelled uninduced and 2 days induced TbPam16-HA exclusive expressor cells mixed before the CoIP; mitochondria-enriched pellets solubilised in 1% digitonin, 20 mM Tris-HCl pH 7.4, 100 mM NaCl; anti-HA affinity matrix, 2 h, 4°C; LC-MS; preferentially detects stable interaction partners

binding [1]	binding [2]	Substance
binds		Tb927.8.4190 (from UniProt Q57W16)
	binds	TbCOQ9 (from UniProt Q57UL9)
binds	binds	TbPam18 (from UniProt Q57YN2)
